Data: patent US20130295578A1, “METHODS FOR SCREENING FOR DRUG RESISTANCE IN CANCER TREATMENT” (TRUSTEES OF DARTMOUTH COLLEGE, priority 2011, published 2013)
“Also recorded” adds a separate entry of the source. At least one structure is not confirmed: it was looked up by name or label, or the drawing left a doubt.

Key:
[1] = test system: PK-1 and PK-2 cells; experiment: modified extracellular matrix-based 3D culture; format: cell-based, murine; conditions: kinase inhibitor present
Method: Murine pancreatic tissue from euthanized animals was mechanically minced and digested with 2 mg/ml of Collagenase Type 4 (Worthington, Lakewood, N.J.) for 1 hour at 37° C. For ex vivo primary cell culture, 10,000 cells per well of 48-well plate were immediately plated in 3% Matrigel™ as described above, except for this modification: RPMI 1640 medium was supplemented with 20% FBS, 1× penicillin/streptomycin and 25 ng/mL amphotericin B (MP Biomedicals, LLC, Solon, Ohio). For secondary cell cultures from tumor lesions of mouse models, cancer (epithelial) cells were selected by carrying out several rounds of diluted plating in RPMI 1640 medium, with a gradual decrease concentration of FBS from 20% to 5%: PK-1 and RInk-1, as previously reported (Seeley et al. 2009. Cancer Res. 69:422-430), or after subcutaneous passage in nude mice (PK-2 and RInk-2). Experiments were conducted with epithelial cells within less than 20 passages.

[2] = test system: COLO-357 cells; conditions: COLO-357, 3D culture

SMILES | stimulatory growth effects of EGF/TGF-β1 [1] | protective effects of EGF/TGF-β1 against gemcitabine and cisplatin ([2]; concomitant inhibitor treatment) | EGF/TGF-β1-induced growth stimulation ([2]; 1 nM EGF + 100 pM TGF-β1, inhibitor pre-incubated or added concomitantly)
Oc1c2ccccc2c2c3c(cccc13)N=N2 [SP600125] | almost negligible inhibitory effect | markedly effective only in COLO-357 cells | completely blocked
O=c1cc(N2CCOCC2)oc2c(-c3ccccc3)cccc12 [LY294002] | almost completely blocked; also recorded: interfered with cooperative growth stimulation; also recorded: markedly attenuated | – | –
